## Screening data

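Uptake of anthrax lethal toxin into cultured cells, read by FRET (460/530 nm ratio) and reported from the 460 nm channel; the cell line is not named here.
Each compound was tested as a concentration series from about 0.0005 to 40 µM.
The number is the fitted AC50 of the 460 nm signal alone; lower values mean a more potent effect. A falling signal goes with compounds filed as inhibitors or cytotoxic, a rising one with activators or fluorescent compounds (inferred from the filed classes).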

Values are in µM.
Common to all entries: measured here: 460 nm channel.
Part of the compounds only, not a random draw; the main read-out is not listed here.
Potencies fitted to partial, single-point or poorly fitting curves are rough.
The first word of each remark tells which way the curve ran; it can be opposite to the aim of the assay.

{"structure": "CSc1ccccc1NC(=O)c1noc2c1CCC2", "AC50 (µM)": "31.62", "curve as filed": "falling, partial curve"}
{"structure": "CC1CCN(S(=O)(=O)c2ccc(NC(=O)Cn3nnc(-c4ccccc4)n3)cc2)CC1", "AC50 (µM)": "12.59", "curve as filed": "falling, single point"}
{"structure": "CN(C)c1ncc2nc(-c3cc(F)cc(F)c3)c(=O)n(Cc3ccc(F)cc3)c2n1", "AC50 (µM)": "0.631", "curve as filed": "rising, full curve"}
{"structure": "CN(c1ccccc1)S(=O)(=O)c1cc(C(=O)N2CCN(c3ccccn3)CC2)ccc1Cl", "AC50 (µM)": "10", "curve as filed": "falling, partial curve, poor fit"}
{"structure": "COC(=O)c1ccccc1NC(=O)c1ccc(COc2ccccc2)o1", "AC50 (µM)": "10", "curve as filed": "falling, partial curve"}
{"structure": "O=C1c2ccccc2C(=O)C1c1ccncc1", "AC50 (µM)": "6.31", "curve as filed": "falling, partial curve"}
{"structure": "O=C1C(Cl)=C(NCCN2CCOCC2)C(=O)c2ncccc21", "AC50 (µM)": "12.59", "curve as filed": "falling, partial curve"}
{"structure": "Cc1nc2ccccc2c(=O)n1NC(=O)c1c(O)c2c(n(CC(C)C)c1=O)CCCC2", "AC50 (µM)": "12.59", "curve as filed": "rising, single point"}
{"structure": "O=C(CN1C(=O)c2ccccc2S1(=O)=O)N1CCc2ccccc2C1", "AC50 (µM)": "5.012", "curve as filed": "rising, single point"}
{"structure": "C(=C\\CSc1nnnn1-c1ccccc1)/CSc1nnnn1-c1ccccc1", "AC50 (µM)": "31.62", "curve as filed": "falling, single point"}
{"structure": "O=C(O)c1cc[c]([Hg][Cl])cc1", "AC50 (µM)": "1.585", "curve as filed": "rising, full curve"}
{"structure": "COC(=O)[C@@]1(Cc2ccc(F)cc2)[C@H]2c3cc(C(=O)N(C)C)n(Cc4ccccn4)c3C[C@H]2CN1C(=O)c1ccccc1", "AC50 (µM)": "10", "curve as filed": "rising, partial curve"}
{"structure": "COc1cc(NC(=O)c2cc(-n3cnnc3)ccc2Cl)cc(OC)c1", "AC50 (µM)": "0.003981", "curve as filed": "falling, full curve, poor fit"}
{"structure": "O=c1cnc2cnc(Nc3ccccc3)nc2n1Cc1cccs1", "AC50 (µM)": "25.12", "curve as filed": "rising, single point"}
{"structure": "CC12COC3(C(=O)Nc4cccnc4)CC1CCC32C", "stereo": "stereo unspecified", "AC50 (µM)": "15.85", "curve as filed": "rising, single point"}
{"structure": "COc1ccc(-c2nc3cnc(Nc4ccccc4)nc3n(Cc3cccs3)c2=O)cc1", "AC50 (µM)": "5.012", "curve as filed": "rising, partial curve"}
{"structure": "CC(=O)Nc1cccc(NC(=O)CSc2ncc(-c3ccc(Cl)cc3)n2Cc2ccco2)c1", "AC50 (µM)": "19.95", "curve as filed": "falling, single point"}
{"structure": "O=c1c(CCc2ccccc2)nc2cnc(N3CCOCC3)nc2n1C[C@H]1CCCO1", "AC50 (µM)": "12.59", "curve as filed": "rising, partial curve"}
{"structure": "CCOC(=O)Cn1c(CN(C)Cc2ccccc2)nc2c1c(=O)n(C)c(=O)n2C", "AC50 (µM)": "10", "curve as filed": "falling, single point"}
{"structure": "CC(C)Cc1cc(C(=O)Nc2sc3c(c2C#N)CCCC3)no1", "AC50 (µM)": "10", "curve as filed": "falling, partial curve"}
{"structure": "COc1ccc2c(c1)c(C(=O)CN1CCN(C(=O)c3ccco3)CC1)c(C)n2C", "AC50 (µM)": "0.7943", "curve as filed": "falling, full curve, poor fit"}
{"structure": "Cn1nc(-c2ccc(Cl)cc2)c2cc(C(=O)N3CCCC3)sc21", "AC50 (µM)": "10", "curve as filed": "falling, partial curve"}
{"structure": "CCOC(=O)c1cnc(SCc2ccc(C)cc2)nc1N", "AC50 (µM)": "0.1259", "curve as filed": "falling, full curve, poor fit"}
{"structure": "CCN(Cc1cc2cc(C)ccc2[nH]c1=O)C(=O)c1cccc(OC)c1", "AC50 (µM)": "6.31", "curve as filed": "rising, partial curve, poor fit"}
{"structure": "Cc1cc(=O)[nH]c2c(C)c(N)ccc12", "AC50 (µM)": "0.1259", "curve as filed": "falling, full curve, poor fit"}

The first 2 entries again:

structure,AC50 (µM),curve as filed
CSc1ccccc1NC(=O)c1noc2c1CCC2,31.62,"falling, partial curve"
CC1CCN(S(=O)(=O)c2ccc(NC(=O)Cn3nnc(-c4ccccc4)n3)cc2)CC1,12.59,"falling, single point"

The results are deposited in PubChem (AID912; NCATS, 2007).